Measured values published in the supplement of paper PMC12819154, “High-throughput peptide-centric local stability assay extends protein–ligand identification to membrane proteins, tissues and bacteria” (Nature Structural & Molecular Biology, 2025).
The list shows a part of the results, in another mix than the full data. Most entries show no effect beyond the scatter of the controls.

Sequences of proteins named here, by UniProt entry; tags and fusion partners are left off. A change or cut given only in a name is not applied to a line headed by its entry.
UniProt P0ADD5: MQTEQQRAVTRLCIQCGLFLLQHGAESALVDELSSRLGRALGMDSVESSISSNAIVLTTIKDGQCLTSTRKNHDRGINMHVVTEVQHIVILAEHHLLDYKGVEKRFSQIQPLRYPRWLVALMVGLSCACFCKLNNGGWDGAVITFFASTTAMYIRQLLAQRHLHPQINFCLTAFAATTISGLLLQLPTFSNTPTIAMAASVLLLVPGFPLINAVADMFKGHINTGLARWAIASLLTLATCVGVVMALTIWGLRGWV

What follows are compounds tested against UniProt P0ADD5 (assay: log2 fold change of tryptic peptide abundance, ligand vs vehicle (limited proteolysis) (log2 ratio); higher = more trypsin-susceptible (destabilized)). Conditions: peptide sequence: FSQIQPLRYPR; peptide start residue: 106; ligand concentration: 5 mM; sample: E. coli desalted lysate; replicate design: treated before aliquoting.
Experimental: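 HT-PELSA: desalted E. coli K-12 BW25113 lysate (with 12 mM MgCl2) incubated with 5 mM ATP (pH 7) or water for 30 min at 25 C, then a 4 min trypsin pulse at 22 C. Peptides were quantified by DIA-MS (4 replicates). Value is the peptide log2 fold change (treated/control); negative = stabilized. Scale: negative = ligand-stabilized region.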
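Further: lysate desalted by size exclusion to strip endogenous ATP, peptide intensities built from DIA-NN precursor signals, and peptides missing any value discarded before comparison.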

Structure (SMILES)	log2 fold change
Nc1ncnc2c1ncn2[C@@H]1O[C@H](COP(=O)(O)OP(=O)(O)OP(=O)(O)O)[C@@H](O)[C@H]1O [adenosine 5'-triphosphate]	0.187
